PubChem BioAssay AID493246 – Drosophila RNAi Screening Center, 2011

Test: 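Genes fly cells need to grow and stay alive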 (primary screen)
System: Drosophila Kc and S2R+ cells
Reagent: long dsRNA against Drosophila genes
Measurement: 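Cell number per well after knock-down, printed as raw plate values; calls were based on per-plate z-scores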
Scale: Kc cell number and S2R+ cell number: higher = more cells remaining
Rule for the call: 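Active when the per-plate z-score of cell number is 3 or more in the direction of fewer cells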
The screen tested about 21,000 reagents; this is a random part of those that have a named target and a result. Of all reagents, 429 (2%) got an active call. 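Values are raw and not normalised between plates; calls rest on per-plate z-scores that were not deposited.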 Entries without a mark were called inactive. The record does not give: the amount of reagent, the time to read-out.

| Kc cell number, rep 1 | Kc cell number, rep 2 | S2R+ cell number, rep 1 | S2R+ cell number, rep 2 | gene knocked down | amplicon |
| --- | --- | --- | --- | --- | --- |
| 1.35e6 | 1.39e6 | 1.07e6 | 1.26e6 | CG43127 | DRSC09039 |
| 1.06e6 | 1.22e6 | 1.05e6 | 1.07e6 | Gycbeta100B (Guanylyl cyclase beta-subunit at 100B) | DRSC14039 |
| 1.29e6 | 1.51e6 | 1.04e6 | 1.12e6 | Gycbeta100B (Guanylyl cyclase beta-subunit at 100B) | DRSC14040 |
| 6.21e5 | – | 8.97e5 | – | Gycbeta100B (Guanylyl cyclase beta-subunit at 100B) | DRSC16691 |
| 1.67e6 | 1.62e6 | 9.74e5 | 1.14e6 | CG14220 | DRSC19577 |
| 1.47e6 | 1.54e6 | 1.30e6 | 1.34e6 | Hpf1 (Histone PARylation factor 1) | DRSC12202 |
| 1.33e6 | 1.46e6 | 1.14e6 | 1.04e6 | Snx21 (Sorting nexin 21) | DRSC00564 |
| 5.54e5 | – | 7.67e5 | – | woc (without children) | DRSC15928 |
| 1.58e6 | 1.58e6 | 1.07e6 | 1.22e6 | nmdyn-D6 | DRSC20355 |

Part of the list above, reduced to “S2R+ cell number, rep 1”.
Hpf1 (Histone PARylation factor 1) [DRSC12202]: 1.30e6
Snx21 (Sorting nexin 21) [DRSC00564]: 1.14e6
woc (without children) [DRSC15928]: 7.67e5

The listing continues.
| Kc cell number, rep 1 | Kc cell number, rep 2 | S2R+ cell number, rep 1 | S2R+ cell number, rep 2 | gene knocked down | amplicon |
| --- | --- | --- | --- | --- | --- |
| 1.63e6 | 1.65e6 | 1.20e6 | 3.25e5 | msl-1 (male-specific lethal 1) | DRSC03573 |
| 1.51e6 | 1.58e6 | 1.09e6 | 1.18e6 | corolla | DRSC20102 |
| 1.52e6 | 1.54e6 | 1.01e6 | 1.18e6 | CR11023 (pseudo) | DRSC00302 |
| 1.41e6 | 1.38e6 | 1.12e6 | 1.17e6 | clu (clueless) | DRSC07181 |
| 5.34e5 | – | 7.71e5 | – | Parp1 (Poly-(ADP-ribose) polymerase 1) | DRSC07725 |
| 1.56e6 | 1.43e6 | 1.05e6 | 1.34e6 | Parp1 (Poly-(ADP-ribose) polymerase 1) | DRSC07778 |
| 1.66e6 | 1.60e6 | 1.06e6 | 1.30e6 | Parp1 (Poly-(ADP-ribose) polymerase 1) | DRSC07780 |
| 1.30e6 | 1.42e6 | 1.32e6 | 1.31e6 | CG10428 | DRSC02054 |
| 1.43e6 | 1.40e6 | 1.18e6 | 1.24e6 | CG13306 | DRSC09976 |
| 1.72e6 | 1.68e6 | 1.03e6 | 1.21e6 | kdn (knockdown) | DRSC18328 |
| 1.49e6 | 1.55e6 | 1.14e6 | 1.32e6 | CG16898 | DRSC06635 |
| 1.44e6 | 1.36e6 | 1.08e6 | 1.16e6 | CG32379 | DRSC10318 |
| 1.20e6 | 1.69e6 | 1.18e6 | 1.22e6 | CG32638 | DRSC18968 |
| 1.54e6 | 1.54e6 | 1.14e6 | 1.19e6 | mRpS28 (mitochondrial ribosomal protein S28) | DRSC06939 |
| 1.43e6 | 1.52e6 | 1.16e6 | 1.26e6 | pes (peste) | DRSC03033 |
